Source: PubChem BioAssay AID1671190 (National Center for Advancing Translational Sciences (NCATS), 2021)
About 6,100 (1.1%) of roughly 580,000 compounds were called active. The shares of active, inactive and inconclusive entries below differ from those in the screen. Calls come from the whole dose curve; as a rule, active = well fitted inhibition curve with a large enough effect; inconclusive = small, poorly fitted or top-dose-only effect, or another doubt; inactive = no such curve, though single readings can be large or run the other way. Potencies beside an inconclusive call are fits to weak or partial responses and may not hold up.

The chains behind the UniProt entries cited, without tags or fusion partners. Where a name states a change or a piece, a line headed by the entry shows the natural chain unless it says otherwise.
UniProt P18054: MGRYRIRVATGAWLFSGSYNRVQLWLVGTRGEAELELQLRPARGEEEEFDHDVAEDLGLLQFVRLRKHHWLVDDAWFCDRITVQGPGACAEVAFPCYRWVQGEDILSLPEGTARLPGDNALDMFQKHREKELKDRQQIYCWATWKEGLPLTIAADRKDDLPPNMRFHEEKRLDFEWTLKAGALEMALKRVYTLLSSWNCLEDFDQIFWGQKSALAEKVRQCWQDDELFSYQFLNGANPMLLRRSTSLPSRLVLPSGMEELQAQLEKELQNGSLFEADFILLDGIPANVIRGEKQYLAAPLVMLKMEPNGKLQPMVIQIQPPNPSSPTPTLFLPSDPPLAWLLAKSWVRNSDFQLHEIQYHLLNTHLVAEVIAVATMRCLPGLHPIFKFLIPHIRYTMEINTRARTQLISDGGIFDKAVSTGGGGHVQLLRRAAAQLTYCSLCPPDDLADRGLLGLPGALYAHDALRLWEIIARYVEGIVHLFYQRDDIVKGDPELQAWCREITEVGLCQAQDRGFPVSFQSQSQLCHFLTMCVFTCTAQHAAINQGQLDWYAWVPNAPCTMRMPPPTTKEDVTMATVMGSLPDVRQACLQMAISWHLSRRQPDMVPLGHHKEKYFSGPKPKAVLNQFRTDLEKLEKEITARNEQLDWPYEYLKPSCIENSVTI

target: Polyunsaturated fatty acid lipoxygenase ALOX12 (Homo sapiens) (UniProt P18054); experiment: Primary qHTS assay for inhibitors of human arachidonate 12S-lipoxygenase (ALOX12): Round 2; conditions: purified 12hLO, xylenol orange hydroperoxide absorbance; series mostly up to 108 µM
How it was run: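 Purified human 12hLO (150 nM final) in 25 mM Hepes, 0.01% Triton X-100, pH 7.0 was preincubated 15 min at room temperature with compound. Then 40 uM arachidonic acid was added, 30 min. Hydroperoxide was read by Fe-XO absorbance ratio 573/405 nm.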
Potency is the fitted concentration of half-maximal effect.

SMILES | Potency
N#CCCn1c(=O)cnc2cnc(N3CCOCC3)nc21 | inconclusive: 89.1 µM [inhibitor, partial curve, poor fit]
CN(C)C(CNC(=O)c1cc(-c2ccco2)nc2ccccc12)c1ccccc1 (stereo not drawn) | active: 10 µM
O=C(/C=C/c1cccc(Cl)c1)c1ccc(O)cc1 | inconclusive: 50.1 µM [inhibitor, partial curve, poor fit]
COc1ccc(C)cc1-n1nnnc1SCc1nc(C(C)C)no1 | inconclusive: 79.4 µM [inhibitor, single point]
Cc1sc2ncnc(NS(=O)(=O)c3ccc(Cl)cc3)c2c1C | inconclusive: 31.6 µM [inhibitor, partial curve, poor fit]
O=C(CN1CCCC1)Nc1ccc2c(c1)CCC2 | inconclusive: 1 µM [inhibitor, full curve]
O=C(Nn1cnnc1)c1cc(Cl)ccc1Cl | inconclusive: 35.5 µM [inhibitor, partial curve, poor fit]
CSc1snnc1-c1ccccc1 | inactive
CCCNC(=O)COc1ccc(-c2noc(-c3ccccc3)n2)cc1OCC | inactive
COc1ccc(N2CCN(S(=O)(=O)CCNC(=O)C3CC(=O)N(c4ccccc4)C3)CC2)cc1 (stereo not drawn) | inconclusive: 112 µM [inhibitor, partial curve, poor fit]
COc1cc(/C=C/C(=O)c2ccc(C(=O)O)s2)cc(OC)c1 | inconclusive: 7.08 µM [inhibitor, full curve, poor fit]
CCOc1ccc(NC(=O)COC(=O)c2ccc3c(c2)OCO3)cc1 | inactive
O=C(/C=C/c1ccc2ccccc2n1)c1cc(Cl)ccc1O | inconclusive: 39.8 µM [inhibitor, partial curve]
O=C(O)CCc1ccc(-c2ccccc2)n1NC(=O)c1cccs1 | inconclusive: 50.1 µM [inhibitor, partial curve, poor fit]
O=c1nccc(NCc2ccco2)[nH]1 | inconclusive: 35.5 µM [inhibitor, partial curve, poor fit]
CCn1cc(S(=O)(=O)N2CCCC2c2nncn2Cc2ccncc2)cn1 (stereo not drawn) | inactive
CC1=CC(C)(C)[N+](C)(C)c2ccc(C)cc21 | inconclusive: 79.4 µM [inhibitor, partial curve, poor fit]
CC(C)(C)c1ccc(CC(=O)N2CCC2(C)C(=O)NS(=O)(=O)c2cccc(F)c2)cc1 (stereo not drawn) | inconclusive: 4.47 µM [inhibitor, full curve, poor fit]
CC(C)c1ccc(C2OCC(C)([N+](=O)[O-])CO2)cc1 (stereo not drawn) | inconclusive: 3.98 µM [inhibitor, full curve, poor fit]
C=C(C)/C=N/NC(=S)Nc1ccc(S(=O)(=O)N2CCOCC2)cc1 | inconclusive: 14.1 µM [inhibitor, partial curve, poor fit]
COC(=O)c1sc2ncccc2c1OCc1c(Cl)cccc1Cl | active: 39.8 µM
O=C(COC(=O)[C@@H]1CCCN1S(=O)(=O)c1ccc(Cl)cc1)Nc1ccc(F)cc1F | inconclusive: 100 µM [inhibitor, single point]
COc1cccc(CC2(CO)CCN(Cc3cn(C)nc3C)CC2)c1 | inconclusive: 100 µM [inhibitor, single point]

SMILES | Potency
S=C(NCCCN1CCOCC1)Nc1ccc(Cl)c(Cl)c1 | inconclusive: 17.8 µM [inhibitor, full curve, poor fit]
O=C(CSc1nnc(CN2CCCC2)n1-c1ccccc1)c1ccc2c(c1)OCO2 | inconclusive: 35.5 µM [inhibitor, single point]
CN(CC[C@H]1CN(C(=O)c2ccc(C(F)(F)F)cc2)CC[C@H]1CC(=O)O)c1ccccc1 | inconclusive: 15.8 µM [inhibitor, full curve]
O=C(Cc1ccc(S(=O)(=O)N2CCCC2)s1)Nc1nc2c(s1)CCCC2 | inconclusive: 70.8 µM [inhibitor, single point]
O=C(O)c1ccn(COc2ccc(Br)cc2)n1 | inconclusive: 56.2 µM [inhibitor, partial curve, poor fit]
CCOc1ccc(C2CCCN2C(=O)Cn2cccnc2=O)cc1 (stereo not drawn) | inactive
N#Cc1ccc(N2CCC(C(=O)OCc3cccc4cccnc34)CC2)nc1 | inconclusive: 28.2 µM [inhibitor, partial curve, poor fit]
CCN(CC(=O)NC1CCS(=O)(=O)C1)C(=O)COc1ccccc1-c1ccccc1 (stereo not drawn) | inconclusive: 0.251 µM [inhibitor, full curve, poor fit]
CC(C)COc1ccc(C/C(N)=N/n2cnnc2)cc1 | inactive
COc1ccc2cc(S(=O)(=O)c3cccc(Cl)c3)c(=O)oc2c1 | inactive
CS(=O)(=O)N(CC(=O)N1CCN(Cc2ccccc2)CC1)c1cccc(F)c1 | inconclusive: 39.8 µM [inhibitor, partial curve, poor fit]
O=C([C@@H]1C[C@@H](c2ccc(F)cc2)N(Cc2ccccc2)C1)N1CCN(c2ccccn2)CC1 | inactive
Cc1c(F)cccc1NC(=O)Nc1cccc(-c2ccc(N3CCOCC3)nn2)c1 | inactive
Cc1ccc(CCCOC(=O)C[N+]2(C)CCOCC2)cc1 | inconclusive: 50.1 µM [inhibitor, partial curve, poor fit]
COc1ccccc1/C=C/c1nc(S(=O)(=O)c2ccccc2)c(NCCN(C)C)o1 | inconclusive: 28.2 µM [inhibitor, full curve, poor fit]
COC(=O)CC(NC(=O)c1cccc(F)c1)c1ccc(OC)c(OC)c1 (stereo not drawn) | inconclusive: 5.01 µM [inhibitor, partial curve, poor fit]
COc1ccc(Nc2cccc(CN3CCCC(C)(NC(C)=O)C3)c2)cc1 (stereo not drawn) | inactive
CCOc1ccc(NC(=S)NC(=O)c2c(Br)cnn2C)c([N+](=O)[O-])c1 | inconclusive: 39.8 µM [inhibitor, partial curve, poor fit]
Cc1ccc(C(=O)N2CCC(c3n[nH]c(=O)n3-c3ccccc3)CC2)cc1F | active: 28.2 µM
COC(=O)c1[nH]c2ccc(Br)cc2c1NC(=O)CN1CCCc2ccccc21 | inactive
Oc1ccc(Br)cc1C=Nc1ccc2c3c(cccc13)CC2 | inactive
NC(=O)Cc1nc2scc(-c3ccccc3)c2c(=O)[nH]1 | inconclusive: 112 µM [inhibitor, partial curve, poor fit]
Cc1coc2c(O)cc3c(c12)OC1(N2CCCCC2)C(=O)NCCCC31 (stereo not drawn) | inconclusive: 3.98 µM [inhibitor, full curve, poor fit]

Reprinted at random: 2 entries already listed
SMILES | Potency
O=C([C@@H]1C[C@@H](c2ccc(F)cc2)N(Cc2ccccc2)C1)N1CCN(c2ccccn2)CC1 | inactive
COc1ccc2cc(S(=O)(=O)c3cccc(Cl)c3)c(=O)oc2c1 | inactive

Later entries.

SMILES | Potency
COc1ccc(-c2csc(N(Cc3ccccc3)C(=O)COc3ccc(Cl)cc3)n2)cc1 | inactive
O=C(N/N=C/c1ccc(N2CCOCC2)o1)c1cccc(C(F)(F)F)c1 | inactive
Cc1c(C#N)c(=O)c(-[n+]2ccccc2)c([S-])n1-c1ccc(Cl)cc1 | inconclusive: 50.1 µM [inhibitor, partial curve, poor fit]
O=C(NCc1ccccc1)NC1(C(=O)N2CCOCC2)CCCCC1 | inconclusive: 126 µM [inhibitor, single point]
O=C(O)c1cccnc1SC(F)(F)F | inconclusive: 35.5 µM [inhibitor, partial curve, poor fit]
Nc1[nH]ncc1N=Nc1ccc(Cl)cc1 | inconclusive: 44.7 µM [inhibitor, partial curve, poor fit]
O=C(O)CCn1cc(/C=C\C(=O)c2ccc(Cl)cc2)c(-c2cccc(Br)c2)n1 | inconclusive: 50.1 µM [inhibitor, partial curve, poor fit]
O=c1[nH]nc(CNc2cccc(C(F)(F)F)c2)c2ccccc12 | inactive
O=C(Nc1ccncc1)c1ccc(NS(=O)(=O)c2cccc(F)c2)cc1 | inactive
Cc1cc(Nc2ccccc2C)nc(-n2nc(C)cc2C)n1 | inactive
CC(C)CCC[C@](C)(O)c1ccc(C(=O)O)cc1O | inconclusive: 100 µM [inhibitor, single point]
COc1ccc(NC(=O)CS(=O)CC(=O)Nc2cccc3cccnc23)cc1 (stereo not drawn) | inconclusive: 1.58 µM [inhibitor, full curve, poor fit]
CS(=O)(=O)NCCNc1ncc(C(F)(F)F)cc1Cl | inconclusive: 89.1 µM [inhibitor, partial curve, poor fit]
COc1ccc(C2=CSC(/N=C/c3ccc(F)cc3)=NN2)cc1 | inconclusive: 11.2 µM [inhibitor, partial curve]
COc1ccccc1CC1S/C(=N/N=C/c2ccco2)NC1=O (stereo not drawn) | inactive
N#Cc1c(C(F)(F)F)cc(-c2ccc(Cl)cc2)nc1SCC(=O)O | inconclusive: 100 µM [inhibitor, single point]
O=S(=O)(c1ccc2c(c1)CCN2Cc1cccc(Cl)c1)N1CCOCC1 | inconclusive: 44.7 µM [inhibitor, partial curve, poor fit]
CCOC(=O)[C@@H]1[C@H]2COc3cc(OC)ccc3[C@@H]2N2C(=O)N(c3ccc(C)cc3)C(=O)[C@@]12C | inconclusive: 35.5 µM [inhibitor, partial curve, poor fit]
COc1ccc(C(=O)Nc2oc3ccccc3c(=O)c2-c2ccc(OC)c(OC)c2)cc1 | inconclusive: 50.1 µM [inhibitor, partial curve, poor fit]
COc1ccc(CNC(=O)N(C)C2CCc3nn(CC4CC4)c(=O)n3CC2)cc1 (stereo not drawn) | inactive
Cc1c(CC(=O)N2CCC(O)CC2)c(=O)oc2cc3c(cc12)CCC1(CCCCC1)O3 | inactive
Cc1ccc(NC(=O)CCN2CCC(Cc3ccccc3)CC2)cc1 | inconclusive: 44.7 µM [inhibitor, partial curve, poor fit]

Three structures already listed, ordered by length of the SMILES, high to low:
SMILES | Potency
CCOC(=O)[C@@H]1[C@H]2COc3cc(OC)ccc3[C@@H]2N2C(=O)N(c3ccc(C)cc3)C(=O)[C@@]12C | inconclusive: 35.5 µM [inhibitor, partial curve, poor fit]
Cc1c(C#N)c(=O)c(-[n+]2ccccc2)c([S-])n1-c1ccc(Cl)cc1 | inconclusive: 50.1 µM [inhibitor, partial curve, poor fit]
Cc1cc(Nc2ccccc2C)nc(-n2nc(C)cc2C)n1 | inactive
